# Source: the supplement of paper PMC7830784
# Where a name gives a salt, the structure may show the parent alone. The list shows a part of the results. This data set is noisy: repeats of one test often differ as much as different tests do.
# Test system: Brugia pahangi adult female
# Assay: motility inhibition on day 3 relative to DMSO vehicle; higher = more active
# Conditions: 10 µM; 3 days
row,SMILES,motility inhibition on day 3 [%]
1,CC1(C)S[C@@H]2[C@H](NC(=O)[C@H](C(=O)O)c3ccsc3)C(=O)N2[C@H]1C(=O)O [ticarcillin disodium],15.8
2,CCOC(=O)n1ccn(C)c1=S [carbimazole],24.8
3,CC1(O)CCC(C(C)(C)O)CC1 (configuration not stated) [terpene hydrate],40.2
4,CCC(=O)Oc1ccc2c(c1)CC[C@@H]1[C@@H]2CC[C@]2(C)[C@@H](OC(=O)CC)CC[C@@H]12 [estradiol dipropionate],18.9
5,O=C1CN(/N=C/c2ccc(-c3ccc([N+](=O)[O-])cc3)o2)C(=O)N1 [dantrolene sodium],0.665
6,CC(C)OC(=O)CCC/C=C\C[C@@H]1[C@@H](/C=C/[C@@H](O)COc2cccc(C(F)(F)F)c2)[C@H](O)C[C@@H]1O [travoprost],15.4
7,CCN(CC)CCOc1ccc2c(c1)C(=O)c1cc(OCCN(CC)CC)ccc1-2 [tilorone],7.97
8,CC1(C)O[C@@H]2C[C@H]3[C@@H]4CCC5=CC(=O)C=C[C@]5(C)[C@H]4[C@@H](O)C[C@]3(C)[C@]2(C(=O)CO)O1 [desonide],6.81
9,CCNC(=O)CCC/C=C\C[C@@H]1[C@@H](/C=C/[C@@H](O)CCc2ccccc2)[C@H](O)C[C@@H]1O [Bimatoprost],2.2
10,NC[C@H]1O[C@H](O[C@H]2[C@H](O)[C@@H](O[C@H]3O[C@H](CO)[C@@H](O)[C@H](N)[C@H]3O)[C@H](N)C[C@@H]2N)[C@H](O)[C@@H](O)[C@@H]1O [kanamycin sulfate],31
11,CC[C@H]1OC(=O)C[C@@H](O)[C@H](C)[C@@H](O[C@@H]2O[C@H](C)[C@@H](O[C@H]3C[C@@](C)(O)[C@@H](O)[C@H](C)O3)[C@H](N(C)C)[C@H]2O)[C@@H](CC=O)C[C@@H](C)C(=O)/C=C/C(C)=C/[C@@H]1CO[C@@H]1O[C@H](C)[C@@H](O)[C@@H](OC)[C@H]1OC [tylosin tartrate],0.958
12,O=C(CCCCCCC(=O)Nc1ccccc1)NO [vorinostat],0.247
13,"Nc1c2c(nc3ccccc13)CCCC2 [9-Amino-1,2,3,4-tetrahydroacridine hydrochloride]",28
14,C/C(=C(\CCOP(=O)(O)O)SC(=O)c1ccccc1)N(C=O)Cc1cnc(C)nc1N [benfotiamine],< 0
15,CCN(CC)C(=S)SSC(=S)N(CC)CC [disulfiram],67
16,C=C[C@@]1(C)CC(=O)[C@]2(O)[C@@]3(C)[C@@H](O)CCC(C)(C)[C@@H]3[C@H](O)[C@H](OC(C)=O)[C@@]2(C)O1 [colforsin],6.26
17,CN(Cc1cnc2nc(N)nc(N)c2n1)c1ccc(C(=O)NC(CCC(=O)O)C(=O)O)cc1 (racemic) [methotrexate(+/-)],28.2
18,CCOc1cc(CC(=O)N[C@@H](CC(C)C)c2ccccc2N2CCCCC2)ccc1C(=O)O [repaglinide],9.47
19,C#C[C@]1(O)CC[C@H]2[C@@H]3CCc4cc(O)ccc4[C@H]3CC[C@@]21C [ethinyl estradiol],18.5
20,CCCCCN(CCCCC)C(=O)C(CCC(=O)O)NC(=O)c1ccc(Cl)c(Cl)c1 (configuration not stated) [Lorglumide sodium],19.8
21,CC(C)(C)NC(=O)[C@@H]1C[C@@H]2CCCC[C@@H]2CN1C[C@@H](O)[C@H](Cc1ccccc1)NC(=O)[C@H](CC(N)=O)NC(=O)c1ccc2ccccc2n1 [Saquinavir Mesylate],1.24
22,Nc1nc2c(ncn2COCCO)c(=O)[nH]1 [Acyclovir],33.1
23,COc1ccc(C(=O)CC(=O)c2ccc(C(C)(C)C)cc2)cc1 [avobenzone],9.49

# Fetched one by one from the list above:
row,SMILES,motility inhibition on day 3 [%]
8,CC1(C)O[C@@H]2C[C@H]3[C@@H]4CCC5=CC(=O)C=C[C@]5(C)[C@H]4[C@@H](O)C[C@]3(C)[C@]2(C(=O)CO)O1 [desonide],6.81
21,CC(C)(C)NC(=O)[C@@H]1C[C@@H]2CCCC[C@@H]2CN1C[C@@H](O)[C@H](Cc1ccccc1)NC(=O)[C@H](CC(N)=O)NC(=O)c1ccc2ccccc2n1 [Saquinavir Mesylate],1.24
12,O=C(CCCCCCC(=O)Nc1ccccc1)NO [vorinostat],0.247
15,CCN(CC)C(=S)SSC(=S)N(CC)CC [disulfiram],67
18,CCOc1cc(CC(=O)N[C@@H](CC(C)C)c2ccccc2N2CCCCC2)ccc1C(=O)O [repaglinide],9.47

# (further entries)

row,SMILES,motility inhibition on day 3 [%]
1,COc1ncnc(NS(=O)(=O)c2ccc(N)cc2)c1OC [sulfadoxine],7.71
2,CC(=O)OCC(=O)[C@@]1(O)[C@H](C)C[C@H]2[C@@H]3CCC4=CC(=O)C=C[C@]4(C)[C@@]3(F)[C@@H](O)C[C@@]21C [dexamethasone acetate],2.37
3,COc1c(N2C[C@@H]3CCCN[C@@H]3C2)c(F)cc2c(=O)c(C(=O)O)cn(C3CC3)c12 [moxifloxacin hydrochloride],< 0
4,COc1ccc(C(=O)c2ccccc2)c(O)c1 [oxybenzone],13.7
5,CN1[C@@H]2CC[C@H]1CC(OC(=O)c1c[nH]c3ccccc13)C2 (some centres not stated) [3-Tropanyl-indole-3-carboxylate hydrochloride],< 0
6,CCCC1O[C@@H]2C[C@H]3[C@@H]4CCC5=CC(=O)C=C[C@]5(C)[C@H]4[C@@H](O)C[C@]3(C)[C@]2(C(=O)CO)O1 (some centres not stated) [budesonide],< 0
7,CCOC(=O)[C@H](CCc1ccccc1)N[C@H]1CCCN2CCC[C@@H](C(=O)O)N2C1=O [Cilazapril],< 0
8,Nc1nc(N)c2nc(CNc3ccc(C(=O)N[C@@H](CCC(=O)O)C(=O)O)cc3)cnc2n1 [Aminopterin],< 0
9,CC(C(=O)O)c1cccc(C(=O)c2ccccc2)c1 (configuration not stated) [ketoprofen],33.4
10,CCOC(=O)c1ncn2c1CN(C)C(=O)c1cc(F)ccc1-2 [flumazenil],6.86
11,O=NN(CCCl)C(=O)NCCCl [carmustine],< 0
12,C/N=C(\NC)NCc1ccccc1 [Bethanidine],10
13,CC(=O)CCCCn1c(=O)c2c(ncn2C)n(C)c1=O [Pentoxifylline],2.19
14,CN1C(=O)OC(C)(C)C1=O [trimethadione],5.86
15,CN(C/C=C/c1ccccc1)Cc1cccc2ccccc12 [naftifine hydrochloride],11.3
16,C[C@H]1O[C@@H](n2cc(F)c(=O)[nH]c2=O)[C@H](O)[C@@H]1O [5-fluoro-5'-deoxyuridine],22.1
17,CCN1CCCC(OC(=O)C(c2ccccc2)c2ccccc2)C1 (configuration not stated) [piperidolate hydrochloride],< 0
18,Nc1ccc(C(=O)O)cc1 [potassium p-aminobenzoate],< 0
19,O=C(O)c1ccc(S(=O)(=O)N(Cl)Cl)cc1 [halazone],35.6
20,O=C(Oc1ccccc1C(=O)O)c1ccccc1O [salsalate],< 0
21,COc1c(C)c2c(c(O)c1C/C=C(\C)CCC(=O)O)C(=O)OC2 [mycophenolic acid],24.2
22,CCCCCNC(=N)N/N=C/c1c[nH]c2ccc(OC)cc12 [tegaserod maleate],15.3
23,NCCNCCNCCN [trientine hydrochloride],18

row,SMILES,motility inhibition on day 3 [%]
1,CNCCCC12CCC(c3ccccc31)c1ccccc12 [maprotiline hydrochloride],25
2,CO/N=C(\C(=O)N[C@@H]1C(=O)N2C(C(=O)[O-])=C(C[N+]3(C)CCCC3)CS[C@H]12)c1csc(N)n1 [Cefepime],28.8
3,OC(c1cc(C(F)(F)F)nc2c(C(F)(F)F)cccc12)C1CCCCN1 (configuration not stated) [mefloquine],7.91
4,NC[C@@H](O)c1ccc(O)c(O)c1 [L(-)-Norepinephrine bitartrate],3.83
5,CC1(C)C[C@@H]1C(=O)N/C(=C\CCCCSC[C@H](N)C(=O)O)C(=O)O [Cilastatin],23.7
6,CCCCCC(=O)O[C@]1(C(C)=O)CC[C@H]2[C@@H]3CCC4=CC(=O)CC[C@]4(C)[C@H]3CC[C@@]21C [hydroxyprogesterone caproate],5.23
7,CC(=O)O[C@H]1C[C@@H]2CC[C@@H]3[C@H](CC[C@@]4(C)[C@H]3C[C@H]([N+]3(C)CCCCC3)[C@@H]4OC(C)=O)[C@@]2(C)C[C@@H]1N1CCCCC1 [vecuronium bromide],< 0
8,CC(=O)O[C@H]1C[C@@H]2CC[C@@H]3[C@H](CC[C@@]4(C)[C@H]3C[C@H]([N+]3(C)CCCCC3)[C@@H]4OC(C)=O)[C@@]2(C)C[C@@H]1N1CCCCC1,< 0
9,Cc1cc(C)cc(OCC2CNC(=O)O2)c1 (configuration not stated) [metaxalone],37.3
10,C[C@@H](O)[C@H]1C(=O)N2C(C(=O)O)=C(S[C@@H]3CN[C@H](C(=O)N(C)C)C3)[C@H](C)[C@H]12,1.02
11,C[C@@H](O)[C@H]1C(=O)N2C(C(=O)O)=C(S[C@@H]3CN[C@H](C(=O)N(C)C)C3)[C@H](C)[C@H]12 [meropenem],2.33
12,C[C@@H]1O[C@@H](OC[C@H]2O[C@@H](Oc3c(-c4ccc(OCCO)c(OCCO)c4)oc4cc(OCCO)cc(O)c4c3=O)[C@H](O)[C@@H](O)[C@@H]2O)[C@H](O)[C@H](O)[C@H]1O [troxerutin],0.433
13,CCN(CC)C(=O)/C(C#N)=C/c1cc(O)c(O)c([N+](=O)[O-])c1 [entacapone],7.5
14,C[C@]12C=CC(=O)C=C1CC[C@H]1[C@@H]3C[C@@H](O)[C@](O)(C(=O)CO)[C@@]3(C)C[C@H](O)[C@@]12F [triamcinolone],6.42
15,CC[C@H](C)C(=O)O[C@H]1C[C@@H](C)C=C2C=C[C@H](C)[C@H](CC[C@@H]3C[C@@H](O)CC(=O)O3)[C@H]21 [lovastatin],11.5
16,CN(C)CCOC(c1ccccc1)c1ccc(Br)cc1 (configuration not stated) [Bromazine Hydrochloride],28.8
17,CCN(CC)CCOC(=O)c1ccc(N)cc1 [procaine hydrochloride],< 0
18,OCCN1CCN(CC/C=C2\c3ccccc3Sc3ccc(Cl)cc32)CC1 [Zuclopenthixol Succinate Salt],27.4
19,CC(C)CCCC(C)N (configuration not stated) [octodrine],4.89
20,CC(=O)O[C@H]1C[C@@]2(C)[C@@H](C[C@@H](O)[C@H]3[C@@]4(C)CC[C@@H](O)[C@@H](C)[C@@H]4CC[C@@]32C)/C1=C(\CCC=C(C)C)C(=O)O [fusidic acid],29.6
21,CC(=O)N[C@@H](CS)C(=O)O [acetylcysteine],11.5
